Results on eight molecules are retold here after patent US20250090651A1.

The target in this assay is I53-50B.4PosT1. Kind of assay: in vitro assembly with I53-50B, DLS.

Results are given in words; binding and its absence hold for the method and conditions named. Some results given as binding are weak or reduced against the parent protein; the word gives no strength.

B1: RSV/B.002 (protein)
chain: QNITEEFYQSTCSAVSRGYLSALRTGWYTSVITIELSNIKETKCNGTDTKVKLIKQELDKYKNAVTELQLLMQNTPAVNNRARREAPQYMNYTINTTKNLNVSISKKRKRRFLGFLLGVGSAIASGIAVCKVLHLEGEVNKIKNALQLTNKAVVSLSNGVSVLTFRVLDLKNYINNQLLPMLNRQSCRISNIETVIEFQQKNSRLLEITREFSVNAGVTTPLSTYMLTNSELLSLINDMPITNDQKKLMSSNVQIVRQQSYSIMCIIKEEVLAYVVQLPIYGVIDTPCWKLHTSPLCTTNIKEGSNICLTRTDRGWYCDNAGSVSFFPQADTCKVQSNRVFCDTMNSLTLPSEVSLCNTDIFNSKYDCKIMTSKTDISSSVITSLGAIVSCYGKTKCTASNKNRGIIKTFSNGCDYVSNKGVDTVSVGNTLYYVNKLEGKNLYVKGEPIINYYDPLVFPSDEFDASISQVNEKINQSLAFIRRSDELLGSGGSGSGSGGSEKAAKAEEAARKMEELFKKHKIVAVLRANSVEEAIEKAVAVFAGGVHLIEITFTVPDADTVIKALSVLKEKGAIIGAGTVTSVEQARKAVESGAEFIVSPHLDEEISQFAKEKGVFYMPGVMTPTELVKAMKLGHTILKLFPGEVVGPQFVKAMKGPFPNVKFVPTGGVNLDNVAEWFKAGVLAVGVGSALVKGTPDEVREKAKAFVEKIRGATELEHHHHHH
In the case of B1, the binding result is “binds”.

B2: RSV/B.093 (protein)
chain: QNITEEFYQSTCSAVSRGYLSALRTGWYTSVITIELSNIKETKCNGTDTKVKLIKQELDKYKNAVTELQLLMQNTPAVNNRARREAPQYMNYTINTTKNLNVSISKKRKRRFLGFLLGVGSAIASGIAVCKVLHLEGEVNKIKNALQLTNKAVVSLSNGVSVLTFRVLDLKNYINNQLLPMLNRQSCRISNIETVIEFQQKNSRLLEITREFSVNAGVTTPLSTYMLTNSELLSLINDMPITNDQKKLMSSNVQIVRQQSYSIMCIIKEEVLAYVVQLPIYGVIDTPCWKLHTSPLCTTNIKEGSNICLTRTDRGWYCDNAGSVSFFPQADTCKVQSNRVFCDTMNSLTLPSEVSLCNTDIFNSKYDCKIMTSKDDISSSVITSLGAIVSCYGKTKCTASNKNRGIIKTFSNGCDYVSNKGVDTVSVGNTLYYVNKLEGKNLYVKGEPIINYYDPLVFPSARWAASISQVNEAINQSLAFIRRSDELLGSGGSGSGSGGSEKAAKAEEAARKMEELFKKHKIVAVLRANSVEEAIEKAVAVFAGGVHLIEITFTVPDADTVIKALSVLKEKGAIIGAGTVTSVEQARKAVESGAEFIVSPHLDEEISQFAKEKGVFYMPGVMTPTELVKAMKLGHTILKLFPGEVVGPQFVKAMKGPFPNVKFVPTGGVNLDNVAEWFKAGVLAVGVGSALVKGTPDEVREKAKAFVEKIRGATELEHHHHHH
B2: the binding entry is listed as “binds”.

B3: RSV/B.123 (protein)
chain: QNITEEFYQSTCSAVSRGYLSALRTGWYTSVITIELSNIKEVKCNGTDTKVKLIKQELDKYKNAVTELQLLMQNTPAVNNRARREAPQYMNYTINTTKNLNVSISKKRKRRFLGFLLGVGSAIASGIAVCKVLHLEGEVNKIKNALQLTNKAVVSLSNGVSVLTFRVLDLKNYINNQLLPMLNRQSCRISNIETVIEFQQKNSRLLEITREFSVNAGVTTPLSTYMLTNSELLSLINDMPITNDQKKLMSSNVQIVRQQSYSIMCIIKEEVLAYVVQLPIYGVIDTPCWKLHTSPLCTTNIKEGSNICLTRTDRGWYCDNAGSVSFFPQADTCKVQSNRVFCDTMNSLTLPSEVSLCNTDIFNSKYDCKIMTSKDDISSSVITSLGAIVSCYGKTKCTASNKNRGIIKTFSNGCDYVSNKGVDTVSVGNTLYYVNKLEGKNLYVKGEPIINYYDPLVFPSDRFAASISQVNEAINQSLAFIRRSDELLGSGGSGSGSGGSEKAAKAEEAARKMEELFKKHKIVAVLRANSVEEAIEKAVAVFAGGVHLIEITFTVPDADTVIKALSVLKEKGAIIGAGTVTSVEQARKAVESGAEFIVSPHLDEEISQFAKEKGVFYMPGVMTPTELVKAMKLGHTILKLFPGEVVGPQFVKAMKGPFPNVKFVPTGGVNLDNVAEWFKAGVLAVGVGSALVKGTPDEVREKAKAFVEKIRGATELEHHHHHH
Regarding B3, the binding entry is listed as “binds”.

B4: RSV/B.081 (protein)
chain: QNITEEFYQSTCSAVSRGYLSALRTGWYTSVITIELSNIKETKCNGTDTKVKLIKQELDKYKNAVTELQLLMQNTPAVNNRARREAPQYMNYTINTTKNLNVSISKKRKRRFLGFLLGVGSAIASGIAVCKVLHLEGEVNKIKNALQLTNKAVVSLSNGVSVLTFRVLDLKNYINNQLLPMLNRQSCRISNIETVIEFQQKNSRLLEITREFSVNAGVTTPLSTYMLTNSELLSLINDMPITNDQKKLMSSNVQIVRQQSYSIMCIIKEEVLAYVVQLPIYGVIDTPCWKLHTSPLCTTNIKEGSNICLTRTDRGWYCDNAGSVSFFPQADTCKVQSNRVFCDTMNSLTLPSEVSLCNTDIFNSKYDCKIMTSKDDISSSVITSLGAIVSCYGKTKCTASNKNRGIIKTFSNGCDYVSNKGVDTVSVGNTLYYVNKLEGKNLYVKGEPIINYYDPLVFPSARFAASISQVNEAINQSLAFIRRSDELLGSGGSGSGSGGSEKAAKAEEAARKMEELFKKHKIVAVLRANSVEEAIEKAVAVFAGGVHLIEITFTVPDADTVIKALSVLKEKGAIIGAGTVTSVEQARKAVESGAEFIVSPHLDEEISQFAKEKGVFYMPGVMTPTELVKAMKLGHTILKLFPGEVVGPQFVKAMKGPFPNVKFVPTGGVNLDNVAEWFKAGVLAVGVGSALVKGTPDEVREKAKAFVEKIRGATELEHHHHHH
Consider B4, for which the binding entry is “binds”.

B5: RSV/B.099 (protein)
chain: QNITEEFYQSTCSAVSRGYLSALRTGWYTSVITIELSNIKEVKCNGTDTKVKLIKQELDKYKNAVTELQLLMQNTPAVNNRARREAPQYMNYTINTTKNLNVSISKKRKRRFLGFLLGVGSAIASGIAVCKVLHLEGEVNKIKNALQLTNKAVVSLSNGVSVLTFRVLDLKNYINNQLLPMLNRQSCRISNIETVIEFQQKNSRLLEITREFSVNAGVTTPLSTYMLTNSELLSLINDMPITNDQKKLMSSNVQIVRQQSYSIMCIIKEEVLAYVVQLPIYGVIDTPCWKLHTSPLCTTNIKEGSNICLTRTDRGWYCDNAGSVSFFPQADTCKVQSNRVFCDTMNSLTLPSEVSLCNTDIFNSKYDCKIMTSKTDISSSVITSLGAIVSCYGKTKCTASNKNRGIIKTFSNGCDYVSNKGVDTVSVGNTLYYVNKLEGKNLYVKGEPIINYYDPLVFPSDRFDASISQVNEAINQSLAFIRRSDELLGSGGSGSGSGGSEKAAKAEEAARKMEELFKKHKIVAVLRANSVEEAIEKAVAVFAGGVHLIEITFTVPDADTVIKALSVLKEKGAIIGAGTVTSVEQARKAVESGAEFIVSPHLDEEISQFAKEKGVFYMPGVMTPTELVKAMKLGHTILKLFPGEVVGPQFVKAMKGPFPNVKFVPTGGVNLDNVAEWFKAGVLAVGVGSALVKGTPDEVREKAKAFVEKIRGATELEHHHHHH
As to B5, the binding result is recorded as “binds”.

B6: RSV/B.100 (protein)
chain: QNITEEFYQSTCSAVSRGYLSALRTGWYTSVITIELSNIKEVKCNGTDTKVKLIKQELDKYKNAVTELQLLMQNTPAVNNRARREAPQYMNYTINTTKNLNVSISKKRKRRFLGFLLGVGSAIASGIAVCKVLHLEGEVNKIKNALQLTNKAVVSLSNGVSVLTFRVLDLKNYINNQLLPMLNRQSCRISNIETVIEFQQKNSRLLEITREFSVNAGVTTPLSPYMLTNSELLSLINDMPITNDQKKLMSSNVQIVRQQSYSIMCIIKEEVLAYVVQLPIYGVIDTPCWKLHTSPLCTTNIKEGSNICLTRTDRGWYCDNAGSVSFFPQADTCKVQSNRVFCDTMNSLTLPSEVSLCNTDIFNSKYDCKIMTSKTDISSSVITSLGAIVSCYGKTKCTASNKNRGIIKTFSNGCDYVSNKGVDTVSVGNTLYYVNKLEGKNLYVKGEPIINYYDPLVFPSDRFDASISQVNEAINQSLAFIRRSDELLGSGGSGSGSGGSEKAAKAEEAARKMEELFKKHKIVAVLRANSVEEAIEKAVAVFAGGVHLIEITFTVPDADTVIKALSVLKEKGAIIGAGTVTSVEQARKAVESGAEFIVSPHLDEEISQFAKEKGVFYMPGVMTPTELVKAMKLGHTILKLFPGEVVGPQFVKAMKGPFPNVKFVPTGGVNLDNVAEWFKAGVLAVGVGSALVKGTPDEVREKAKAFVEKIRGATELEHHHHHH
Regarding B6, the binding result was “binds”.

B7: RSV/B.147 (protein)
chain: QNITEEFYQSTCSAVSRGYLSALRTGWYTSVITIELSNIKETKCNGTDTKVKLIKQELDKYKNAVTELQLLMQNTPAVNNRARREAPQYMNYTINTTKNLNVSISKKRKRRFLGFLLGVGSAIASGIAVCKVLHLEGEVNKIKNALQLTNKAVVSLSNGVSVLTFRVLDLKNYINNQLLPMLNRQSCRISNIETVIEFQQKNSRLLEITREFSVNAGVTTPLSTYMLTNSELLSLINDMPITNDQKKLMSSNVQIVRQQSYSIMCIIKEEVLAYVVQLPIYGVIDTPCWKLHTSPLCTTNIKEGSNICLTRTDRGWYCDNAGSVSFFPQADTCKVQSNRVFCDTMNSLTLPSEVSLCNTDIFNSKYDCKIMTSKTDISSSVITSLGAIVSCYGKTKCTASNKNRGIIKTFSNGCDYVSNKGVDTVSVGNTLYYVNKLEGKNLYVKGEPIINYYDPLVFPSDRFDASISQVNEAINQSREIIRAINIVRKIASEKGSGGSGSGSGGSEKAAKAEEAARKMEELFKKHKIVAVLRANSVEEAIEKAVAVFAGGVHLIEITFTVPDADTVIKALSVLKEKGAIIGAGTVTSVEQARKAVESGAEFIVSPHLDEEISQFAKEKGVFYMPGVMTPTELVKAMKLGHTILKLFPGEVVGPQFVKAMKGPFPNVKFVPTGGVNLDNVAEWFKAGVLAVGVGSALVKGTPDEVREKAKAFVEKIRGATELEHHHHHH
For the molecule B7, the binding entry is “binds”.

B8: RSV/B.148 (protein)
chain: QNITEEFYQSTCSAVSRGYLSALRTGWYTSVITIELSNIKETKCNGTDTKVKLIKQELDKYKNAVTELQLLMQNTPAVNNRARREAPQYMNYTINTTKNLNVSISKKRKRRFLGFLLGVGSAIASGIAVCKVLHLEGEVNKIKNALQLTNKAVVSLSNGVSVLTFRVLDLKNYINNQLLPMLNRQSCRISNIETVIEFQQKNSRLLEITREFSVNAGVTTPLSPYMLTNSELLSLINDMPITNDQKKLMSSNVQIVRQQSYSIMCIIKEEVLAYVVQLPIYGVIDTPCWKLHTSPLCTTNIKEGSNICLTRTDRGWYCDNAGSVSFFPQADTCKVQSNRVFCDTMNSLTLPSEVSLCNTDIFNSKYDCKIMTSKTDISSSVITSLGAIVSCYGKTKCTASNKNRGIIKTFSNGCDYVSNKGVDTVSVGNTLYYVNKLEGKNLYVKGEPIINYYDPLVFPSDRFDASISQVNEAINQSREIIRAINIVRKIASEKGSGGSGSGSGGSEKAAKAEEAARKMEELFKKHKIVAVLRANSVEEAIEKAVAVFAGGVHLIEITFTVPDADTVIKALSVLKEKGAIIGAGTVTSVEQARKAVESGAEFIVSPHLDEEISQFAKEKGVFYMPGVMTPTELVKAMKLGHTILKLFPGEVVGPQFVKAMKGPFPNVKFVPTGGVNLDNVAEWFKAGVLAVGVGSALVKGTPDEVREKAKAFVEKIRGATELLEHHHHHH
Turning to B8, the binding result is recorded as “binds”.
